Primary screen of a compound library

Measurements from “University of Dundee, Small-Polar-MMV Screening Library” (2021), ChEMBL document CHEMBL3988442.

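Whole-parasite assay of Trypanosoma brucei over 72 hours; the read-out is not stated. Tested at 30 µM. Higher reads as stronger inhibition (inferred: compounds with an IC50 in retests scored well above the rest). Values scatter widely below zero; nearly all retest evidence comes from the higher of the two concentrations used. About 64,000 compounds were tested under these conditions; 1.5% (about 940) showed 50% or more at least once.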

Each number is a percent effect as filed. The record does not define 0% and 100%; most values in the screen are far below 50% and negative numbers occur (in some assays of this library far below -100). This is an unselected part of the compounds tested.

O=S(=O)(CCNCc1ccc(Cl)cc1)N1CCOCC1 read -38.95%.
O=C(c1ccccc1-c1nc[nH]n1)N1CCOC(C(F)(F)F)C1 (centres unmarked) read -6.684%.
COc1cccc(CN2CCCC(c3cc(C(N)=O)[nH]n3)C2)c1 (centres unmarked) read -4.853%.
CC(C)NC(=O)N1CCN(CC2CC2)c2ncccc2C1.O=C(O)C(F)(F)F read -19.12%.
Cc1ccsc1CN(C)C(=O)C1CCCN(C(N)=O)C1 (centres unmarked) read -65.46%.
CCCOc1cccc(NS(=O)(=O)c2cc(C(=O)O)cs2)c1 read -11.54%.
CCCc1ccc(C(C)Nc2ncnc3c2CCNC3)cc1 (centres unmarked) read 56.69%.
CN(Cc1cnn(C)c1)C(=O)c1ccnc(OC2CCC2)c1 read -30.7%.
Cn1cc(CN2CCc3c(nnn3C)C2COCc2ccccc2)cn1.O=C(O)C(F)(F)F (centres unmarked) read -187.1%.
c1cncc(CN2CCC(NCCc3ccc4c(c3)CCO4)CC2)c1 read -39.43%.
CC(C)[C@@H]1CN(C(=O)CN(C)Cc2ccc(F)cc2)C[C@H]1C(=O)O read -17.25%.
O=C(NCc1nc2ccccc2[nH]1)c1cc2n(n1)CCCO2 read 20.17%.
Cc1cc(C(=O)N[C@H]2CN(CCO)C[C@@H]2C2CC2)sc1C read 5.661%.
Cc1cn2c(n1)CCC(NC(=O)COCCOc1ccccc1)C2 (centres unmarked) read 30%.
Cc1cccc(-c2noc(CN3CCCC(Cn4cncn4)C3)n2)c1 (centres unmarked) read 16.06%.
O=S(=O)(NCCNc1cc(-n2cccn2)ncn1)c1cccs1 read -37.99%.
CCN1CCc2[nH]cnc2C12CCN(C(=O)CCCn1cncn1)CC2 read -29.89%.
CCOC(=O)[C@H]1[C@@H](O)C(=O)N(C)C12CCN(C(=O)CC1CCCC1)CC2 read 33.26%.
O=C(c1nc(-c2ccc3cc[nH]c3c2)no1)N1CCCC1 read 53.89%.
CC(C)CN1CCN(C)C2(CCN(c3nccs3)CC2)C1=O.O=C(O)C(F)(F)F read -32.36%.
Cc1ccccc1S(=O)(=O)NC(=O)C1(c2cccc(Cl)c2)CC1 read -58.04%.
C[C@@H]1CN(CC(C)(C)N2CCOCC2)CC[C@@]1(O)C1CCOCC1 read -43.59%.
CC(C)c1nnc2n1CCN(CC(=O)Nc1nncs1)C2 read -13.79%.
O=C(O)C(F)(F)F.O=C(c1ccc[nH]1)N1CCc2onc(COc3cccnc3)c2C1 read -678.4%.
Cc1cc(C)n(CC2CCCN2C(=O)c2ccc3nncn3c2)n1 (centres unmarked) read 3.051%.
CCOC1COC2(CCN(Cc3ccc(F)cc3)CC2)C1.O=C(O)C(F)(F)F (centres unmarked) read -8.285%.
Cc1ccc(C(=O)O)cc1-c1cccc(C(C)N(C)C)c1 (centres unmarked) read -30.9%.
CNC(=O)c1cccc(C2CNCCN2C)c1 (centres unmarked) read -33.97%.
NC(=O)c1ccc(NC2CCOC3(CCCC3)C2)nn1 (centres unmarked) read -68.66%.
CNc1nc(CNC(=O)Nc2cc(Cl)ccc2F)cs1 read 15.99%.
Cc1cc(C[C@@H]2COC[C@H]2NCc2ccc(Br)s2)on1.O=C(O)CC(O)(CC(=O)O)C(=O)O read -35.41%.
CCNC(=O)[C@@H]1C[C@H](NC(=O)Cn2ccnc2)CN1Cc1ccsc1 read -53.66%.
COc1ccc(C2(c3nc(-c4cccnc4)no3)CCOCC2)cc1 read -77.7%.
O=C(c1ccc(-c2cccc3c2CCNC3)o1)N1CCOCC1 read 43.78%.
Cc1cc(C)nc(Nc2cccc(C3CCCN(C(C)C)C3)n2)n1 (centres unmarked) read 9.591%.
N#CC1=C(N)Nn2c(nnc2-c2ccccc2Br)S1 read -45.37%.
CC1CCCN1Cc1cccc(C(=O)Nc2ccc3c(c2)CCC3=O)c1 (centres unmarked) read 8.074%.
CCC[C@@H]1CN(Cc2ccccc2SC)C[C@H]1NC(C)=O read -17.43%.
N#Cc1cccnc1OC1CCN(S(=O)(=O)c2c(F)cccc2F)CC1 read -35.25%.
[H][C@]12CC(Cn3cccn3)N(C)[C@@]1([H])CCN(Cc1nccs1)C2 (some centres unmarked) read -12.01%.
CCn1cc(CN2CCCN(C(=O)CCc3ccccc3)CC2)cn1 read -21.14%.
N#Cc1ccccc1CN1CCC(c2nccn2CC2CCC2)CC1 read 28.17%.
CCCS(=O)(=O)N1CCCC(CCC(=O)N(C)CCc2ccccn2)C1 (centres unmarked) read 9.335%.
O=C(CCOc1ccccc1)N1CCCC(c2ncc[nH]2)C1 (centres unmarked) read -22.41%.
CC[C@@H]1N(Cc2cc(OC)cc(OC)c2)CCC[C@]12CCC(=O)N2C read -2.805%.

Repeated from the top, 2 entries:

- O=S(=O)(CCNCc1ccc(Cl)cc1)N1CCOCC1 | -38.95%
- O=C(c1ccccc1-c1nc[nH]n1)N1CCOC(C(F)(F)F)C1 (centres unmarked) | -6.684%